Common to all, as to assay type: cell-based
In assay [1] the test system is human leukemia HL-60 cells. Nature of the assay: CellTiter-Glo cell viability, drugs alone or in combination, HL-60 cells. To be noted: HL-60, 72 h, read-out: (Bs)50, IC50 of drug B when used alone. The method, then: isothiocyanates or derivatives thereof and DNA-effecting or influencing anticancer drugs, kinase-inhibiting anticancer drugs or hormonal anticancer drugs for endocrine therapy were administered separately or in combination to cancer cells. Cells were seeded into 384-well plates, and cultured for 24 hours in a CO2 incubator. Drugs were dissolved in DMSO and diluted to 9 concentration-gradients in 96 well plates, and then added to corresponding cells in 384-well plates, in which the concentrations of DMSO in 384 well plates were less than 1%. Triplicate wells were set for each concentration. After administration, the cells were cultured in the CO2 incubator for another 72 hrs, and afterwards, cell viability was tested by using CellTiter-Glo® reagent and luminescence detector. And IC50 values of each administration group were calculated.
CI value was calculated by the following formula: CI=(Am)50/(As)50+(Bm)50/(Bs)50,
Triplicate wells were set for each co-administration cell well.
(§1) After administration, cells were cultured in the CO2 incubator for another 72 hrs, and afterwards, cell viability was tested by using CellTiter-Glo® reagent and luminescence detector. Curves were plotted according to concentrations or logarithm concentrations of drug A vs cell inhibition rate in the corresponding cell well, and IC50, i.e. (Am)50 was calculated. […]

Assay [2] has as its system DU145 cells. Description: CellTiter-Glo cell viability, drugs alone or in combination, DU145 cells. To be noted: Homo sapiens, DU-145, 72 h, read-out: (Bs)50, IC50 of drug B when used alone. The method, then:
(§2) Cell culture: Androgen-dependent human prostate cancer cells LNCaP, from Shanghai Medicilon Ltd., were placed in a 37° C., 5% CO2 cell incubator, and were cultured in RPMI1640 culture medium with 10% FBS. Androgen-independent human prostate cancer cells DU145, PC-3, from Shanghai Medicilon Ltd., were placed in a 37° C., 5% CO2 cell incubator, and were cultured in F12 culture medium with 10% FBS.
(§3) isothiocyanates or derivatives thereof and DNA-effecting or influencing anticancer drugs, kinase-inhibiting anticancer drugs or hormonal anticancer drugs for endocrine therapy were administered separately or in combination to cancer cells. […] After administration, the cells were cultured in the CO2 incubator for another 72 hrs, and afterwards, cell viability was tested by using CellTiter-Glo® reagent and luminescence detector. And IC50 values of each administration group were calculated.
(§4) CI value was calculated by the following formula: CI=(Am)50/(As)50+(Bm)50/(Bs)50, […]
as §1

Assay [3] concerns LNCaP cells. Description: CellTiter-Glo cell viability, drugs alone or in combination, LNCaP cells. The settings on record: Homo sapiens, 72 h, read-out: (Bs)50, IC50 of drug B when used alone. The method, then:
as §2, §3, §4, §1
Background: ATP-based viability assays read luminescence as a measure of living cells.

Turning to `Cc1ccc(NC(=O)c2ccc(CN3CCN(C)CC3)cc2)cc1Nc1nccc(-c2cccnc2)n1` [imatinib], the IC50 (commonly the concentration that gives 50% inhibition) in assay [1] turned out to be 22.5 µM.
Take `CNC(=O)c1ccc(N2C(=S)N(c3ccc(C#N)c(C(F)(F)F)c3)C(=O)C2(C)C)cc1F` [Enzalutamide, reference compound]: the IC50 in assay [2] was found to be 332 µM; in assay [3], 124 µM.

The values are drawn from patent publication US10010520B2, “Combined application of isothiocyanate compound and anti-cancer medicine” (JC (WUXI) COMPANY, INC., priority 2013, dated 2018).
